Values from PubChem BioAssay AID493246 (Drosophila RNAi Screening Center, 2011)
The deposit covers about 21,000 reagents; below is a random part of those that have a named target and a result. In the full data, 429 (2%) got an active call. 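Values are raw and not normalised between plates; calls rest on per-plate z-scores that were not deposited.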 Not given: the amount of reagent, the time to read-out.

Purpose: 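Identify essential fly genes by loss of cell viability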 (primary screen)
Cells: Drosophila Kc and S2R+ cells
Knock-down reagent: long dsRNA against Drosophila genes
Read-out: 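Raw, unnormalised count of remaining cells in each well; per-plate z-scores of cell number underlie the calls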
Reading the numbers: Kc cell number and S2R+ cell number: higher = more cells remaining
Hit rule: 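Active when the per-plate z-score of cell number is 3 or more in the direction of fewer cells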

gene knocked down | dsRNA | Kc cell number, rep 1 | Kc cell number, rep 2 | S2R+ cell number, rep 1 | S2R+ cell number, rep 2 | Outcome
CG15570 | DRSC18058 | 1.53e6 | 1.50e6 | 1.02e6 | 1.10e6 | inactive
pug | DRSC17036 | 1.55e6 | 1.60e6 | 1.23e6 | 1.30e6 | inactive
CG1265 | DRSC08288 | 1.40e6 | 1.48e6 | 1.05e6 | 1.18e6 | inactive
CG3739 | DRSC15510 | 1.40e6 | 1.34e6 | 1.12e6 | 1.23e6 | inactive
Muc11A | DRSC19498 | 1.46e6 | 1.47e6 | 1.11e6 | 1.17e6 | inactive
CG13227 | DRSC06347 | 1.61e6 | 1.61e6 | 1.29e6 | 1.36e6 | inactive
CG7484 | DRSC10853 | 1.35e6 | 1.38e6 | 1.22e6 | 1.37e6 | inactive
CG6749 | DRSC10704 | 1.30e6 | 1.36e6 | 1.37e6 | 1.52e6 | inactive
ND-MNLL | DRSC18159 | 1.52e6 | 1.49e6 | 9.22e5 | 1.04e6 | inactive
Rap2l | DRSC04646 | 1.72e6 | 1.84e6 | 1.23e6 | 1.34e6 | inactive
bin | DRSC10332 | 1.61e6 | 1.74e6 | 9.61e5 | 1.08e6 | inactive
CG42523 | DRSC00251 | 1.80e6 | 1.79e6 | 1.11e6 | 1.30e6 | inactive
dbf | DRSC02570 | 1.68e6 | 1.70e6 | 1.26e6 | 1.52e6 | inactive
Kaz | DRSC14637 | 1.63e6 | 1.56e6 | 1.03e6 | 1.12e6 | inactive
CG4835 | DRSC10452 | 1.46e6 | 1.37e6 | 8.66e5 | 9.29e5 | inactive
CG34320 (retired record) | DRSC17682 | 1.11e6 | 1.39e6 | 1.05e6 | 1.11e6 | inactive
mtrm | DRSC10322 | 1.27e6 | 1.39e6 | 8.38e5 | 8.56e5 | inactive
mle | DRSC04921 | 1.49e6 | 1.53e6 | 1.28e6 | 1.31e6 | inactive
Pdzd8 | DRSC19355 | 1.51e6 | 1.52e6 | 8.93e5 | 9.62e5 | inactive
CG11178 | DRSC19396 | 6.11e5 | – | 8.45e5 | – | inactive
teq | DRSC10298 | 1.72e6 | 1.67e6 | 1.08e6 | 1.14e6 | inactive
teq | DRSC11301 | 1.73e6 | 1.61e6 | 1.05e6 | 1.08e6 | inactive
teq | DRSC11302 | 1.62e6 | 1.63e6 | 1.12e6 | 1.21e6 | inactive
CG16890 | DRSC01890 | 1.25e6 | 1.36e6 | 1.26e6 | 1.05e6 | inactive

Reformatted: 2 of the entries above
{"gene knocked down": "Muc11A", "dsRNA": "DRSC19498", "Kc cell number, rep 1": 1.46e6, "Kc cell number, rep 2": 1.47e6, "S2R+ cell number, rep 1": 1.11e6, "S2R+ cell number, rep 2": 1.17e6, "Outcome": "inactive"}
{"gene knocked down": "CG13227", "dsRNA": "DRSC06347", "Kc cell number, rep 1": 1.61e6, "Kc cell number, rep 2": 1.61e6, "S2R+ cell number, rep 1": 1.29e6, "S2R+ cell number, rep 2": 1.36e6, "Outcome": "inactive"}
